Assay results reported in PubChem BioAssay AID445 (National Center for Advancing Translational Sciences (NCATS), 2006).
Some of the results follow. These are further read-outs of the screen, such as a control signal, another cell line or another target. No call is given for them. The list favours compounds with an active or inconclusive main result. Potencies come from curve fits of mixed quality, noted in brackets.

Assay: IkB Signaling
Conditions: ABC-DLBCL IkBa-CBG/CBR dual luciferase ratio (green luciferase fused to IkBa over red control in OCI-Ly3 lymphoma cells), 4 h; measured here: control luc red channel unless noted
How it was run: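 Luminescence ratio of IκBα-fused green versus native red beetle luciferase in OCI-Ly3 cells, 4 h post-doxycycline with compound; red signal alone, scaled from basal (0%) to zero light (-100%), flagged nonspecific or cytotoxic effects.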

| Compound | AC50 |
| --- | --- |
| O=C(Cn1c(S(=O)(=O)Cc2ccccc2)nc2ccccc21)N1CCCCC1 | 3.16 µM [rising, single point] |
| Cc1ccc(CN(Cc2cccn2-c2nnc(N3CCCC3=O)s2)C(=O)Nc2ccccc2C(F)(F)F)cc1 | 10 µM [falling, partial curve] |
| Cc1cc(C)c2sc(NC(=O)c3ccc(S(=O)(=O)N4CCOCC4)cc3)nc2c1 | 0.0631 µM [falling, full curve] |
| Cn1c(=O)n(C)c2cc(N3CCOCC3)c(NC(=O)c3c(F)cccc3F)cc21 | 7.94 µM [rising, single point] |
| O=C(NC1CC(=O)N(c2cccc(F)c2)C1)C(c1ccccc1)c1ccccc1 (configuration not stated) | 12.6 µM [falling, partial curve] |
| CCC1C(=O)OCC1Cc1cncn1C (configuration not stated) | 7.94 µM [rising, partial curve, poor fit] |
| Cn1c(-c2c(N)n(C3CCCC3)c3nc4ccccc4nc23)nc2ccccc21 | 10 µM [falling, partial curve] |
| C=CCc1ccc(OCc2ccc(C(=O)Nc3ccc(NC(C)=O)cc3)o2)c(OC)c1 | 12.6 µM [falling, partial curve] |
| CCCC1(c2ccccc2)NC(=O)N(CC(=O)c2[nH]c(C)c(C(=O)OCC)c2C)C1=O (configuration not stated) | 31.6 µM [falling, single point] |
| COc1cccc(NC(=O)Cn2cc(C(=O)c3ccc(F)cc3)c(=O)c3cc(OC)ccc32)c1 | 7.94 µM [falling, partial curve] |
| Cc1cccc(Cn2cnc3c(oc4ccccc43)c2=O)c1 | 0.126 µM [falling, full curve, poor fit] |
| CCCn1c(=O)c(C(=O)Nc2ccccc2C(=O)OC)c(O)c2ccccc21 | 0.2 µM [falling, full curve] |
| N#Cc1ccc(NC2=NS(=O)(=O)c3ccccc32)cc1 | 3.98 µM [rising, partial curve] |
| CCC(=O)N1CCc2cc(CNS(=O)(=O)c3ccc(Br)s3)ccc21 | 1 µM [falling, partial curve] |
| Cc1ccc(C)c(N2C(=O)N(C)c3ccccc3S2(=O)=O)c1 | 0.501 µM [rising, full curve, poor fit] |
| NC(=O)C1CCN(C(=O)CCCCCn2c(=O)[nH]c3ccsc3c2=O)CC1 | 15.8 µM [falling, partial curve] |

For reference, 2 of the compounds above:

| Compound | AC50 |
| --- | --- |
| CCCn1c(=O)c(C(=O)Nc2ccccc2C(=O)OC)c(O)c2ccccc21 | 0.2 µM [falling, full curve] |
| N#Cc1ccc(NC2=NS(=O)(=O)c3ccccc32)cc1 | 3.98 µM [rising, partial curve] |

Remaining list, next part:

| Compound | AC50 |
| --- | --- |
| c1ccc(-c2cc(N3CCCCCC3)n[nH]2)cc1 | 12.6 µM [falling, partial curve] |
| CCC(CC)C(=O)Nc1c2cnn(-c3ccccc3)c2nc(=O)n1-c1ccccc1 | 15.8 µM [falling, partial curve] |
| O=c1cc(-c2ccc(F)cc2)nc(SCc2nc(-c3cccc(C(F)(F)F)c3)no2)[nH]1 | 25.1 µM [falling, single point] |
| Cc1c(C(=O)N(Cc2cccc(F)c2)C2CCS(=O)(=O)C2)oc2cc(Br)ccc12 (configuration not stated) | 25.1 µM [falling, partial curve] |
| COc1ccc(NC(=O)CN2C(=O)C3(SCC(=O)N3c3ccccc3)c3ccccc32)cc1Cl (configuration not stated) | 0.0316 µM [falling, full curve, poor fit] |
| COc1ccc(CNC(=O)c2cccc(N3CCCS3(=O)=O)c2)cc1OC | 15.8 µM [falling, partial curve] |
| CCc1ccc(N2C(=O)CSC23C(=O)N(Cc2cccc(OC)c2)c2ccccc23)cc1 (configuration not stated) | 3.16 µM [falling, partial curve] |
| O=C(NCc1ccc(F)cc1)c1ccc(Cn2c(SCc3ccc(F)cc3)nc3cccnc32)cc1 | 3.16 µM [falling, full curve] |
| CCN(CCCNC(=O)c1cc2cc3ccc(OC)cc3nc2s1)c1cccc(C)c1 | 0.126 µM [falling, full curve, poor fit] |
| O=C(Nc1ccc2oc(-c3ccccc3)nc2c1)c1cccnc1 | 39.8 µM [falling, single point] |
| CCC(C)NC(=O)c1ccc2c(c1)N(Cc1ccccc1F)C(=O)c1ccccc1S2=O (configuration not stated) | 10 µM [falling, partial curve] |
| O=C(CCC(=O)N1CCSc2ccccc21)NCc1ccccc1Cl | 31.6 µM [falling, single point] |
| Cn1c(=O)oc2cc(S(=O)(=O)NCCC(=O)NCc3ccc(F)cc3)ccc21 | 39.8 µM [falling, single point] |
| O=C(Nc1ccc2c(c1)nc1n2CCSC1)c1ccccc1 | 3.98 µM [falling, full curve] |
| CCN(C(=O)Cn1c(=O)nc(-c2ccccc2)c2cc(Cl)ccc21)c1cccc(C)c1 | 39.8 µM [falling, single point] |
| CCc1cccc(NC(=O)C2CCC(CNS(=O)(=O)c3ccc4c(c3)CCCC(=O)N4)CC2)c1 (configuration not stated) | 20 µM [falling, partial curve] |
